{"source": "patent US12509496B2", "about": "(Shanghai Minwei Biotechnology Co., LTD, priority 2020, dated 2025)", "origin": "cited, not measured here", "details": "marketed diabetes drug; cited from earlier work", "note": "For at least one compound, name, drawing or mass did not settle the structure."}
{"smiles": "CCCCCCCCCCCCCCCC(=O)N[C@@H](CCC(=O)NCCCC[C@H](NC(=O)[C@H](C)NC(=O)[C@H](C)NC(=O)[C@H](CCC(N)=O)NC(=O)CNC(=O)[C@H](CCC(=O)O)NC(=O)[C@H](CC(C)C)NC(=O)[C@H](Cc1ccc(O)cc1)NC(=O)[C@H](CO)NC(=O)[C@H](CO)NC(=O)[C@@H](NC(=O)[C@H](CC(=O)O)NC(=O)[C@H](CO)NC(=O)[C@@H](NC(=O)[C@H](Cc1ccccc1)NC(=O)[C@@H](NC(=O)CNC(=O)[C@H](CCC(=O)O)NC(=O)[C@H](C)NC(=O)[C@@H](N)Cc1cnc[nH]1)[C@@H](C)O)[C@@H](C)O)C(C)C)C(=O)N[C@@H](CCC(=O)O)C(=O)N[C@@H](Cc1ccccc1)C(=O)N[C@H](C(=O)N[C@@H](C)C(=O)N[C@@H](Cc1c[nH]c2ccccc12)C(=O)N[C@@H](CC(C)C)C(=O)N[C@H](C(=O)N[C@@H](CCCNC(=N)N)C(=O)NCC(=O)N[C@@H](CCCNC(=N)N)C(=O)NCC(=O)O)C(C)C)[C@@H](C)CC)C(=O)O", "note": "[Liraglutide, liraglutide]", "values": [{"measurement": "weight reduction", "value": 5, "unit": "%"}]}
